Test results taken from PubChem BioAssay AID493014 (National Center for Advancing Translational Sciences (NCATS), 2011).
This is one part of the list. The main result of the screen is listed elsewhere. These columns were measured beside it and carry no call. Compounds called inactive in the main read-out are mostly missing here. Words in brackets tell the shape of the fitted curve; partial curves, single points and poor fits give uncertain potencies.

Test: qHTS Assay to Find Inhibitors of Chronic Active B-Cell Receptor Signaling
Conditions: ABC-DLBCL IkBa-CBG/CBR reporter, luminescence ratio (green luciferase fused to IkBa over red control in TMD8 lymphoma cells), 4 h
How it was run: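 Concentration-response series (up to 46 uM) were applied to TMD8 dual-reporter cells for 4 h at 37C with doxycycline. Green/red ratio, after filter-overlap correction, defined %Activity; red signal alone was normalised to basal cells and zero luminescence.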

[1] = measured here: CBR red luminescence, cell number
[2] = measured here: IkBa-CBG green luminescence

Row | Structure (SMILES) | AC50 [1] | AC50 [2]
1 | O=C(CN(C(=O)CSc1nc2ccccc2o1)c1ccccc1F)NC1CCCCC1 | 2.59 µM [falling, full curve] | 
2 | COCC(C)NS(=O)(=O)c1ccc(C(=O)NCCCn2ccc3ccccc32)cc1 (configuration not stated) | 14.1 µM [rising, single point] | 
3 | Cc1nn(C(=O)c2cccnc2)c(C)c1C | 35.5 µM [rising, partial curve, poor fit] | 
4 | Cn1c(=O)c2c(nc(NCCCO)n2Cc2cccc(Br)c2)n(C)c1=O | 9.2 µM [falling, partial curve, poor fit] | 
5 | C/C(=N\NC(=S)Nc1ccccc1C)C1Cc2ccccc2C(=O)O1 (configuration not stated) | 25.1 µM [falling, partial curve, poor fit] | 
6 | COc1ccc(OC)c(-c2cc(C(=O)NCCN3CCOCC3)no2)c1 | 12.6 µM [rising, partial curve, poor fit] | 
7 | CCOC(=O)c1c(NC(=O)CSc2nnnn2C)sc(C)c1-c1ccc(C)cc1 | 15.8 µM [falling, single point] | 
8 | COc1cccc(C(=O)NCCC2=CCCCC2)c1 | 14.6 µM [falling, single point] | 
9 | CN(C)S(=O)(=O)c1ccc(C(=O)Nc2ccc3ncccc3c2)cc1 | 12.6 µM [rising, single point] | 
10 | CC(=O)C1=C(c2ccccc2)NC(=S)NC1c1cc(Cl)c(OC(C)C)c(Cl)c1 (configuration not stated) | 29.1 µM [falling, single point] | 
11 | CCOC(=O)c1csc(NC(=O)c2cc(OC)c(OC)c(OC)c2)n1 | 10 µM [falling, partial curve] | 
12 | Cc1ccc2nsnc2c1NC(=O)c1cccc([N+](=O)[O-])c1 | 18.4 µM [rising, partial curve, poor fit] | 
13 | COc1ccccc1CC(=O)NC1CCC(C)CC1 (configuration not stated) | 17.8 µM [rising, single point] | 
14 | CCOc1ccc(C2C(C(=O)Nc3cc(C)on3)c3ccccc3C(=O)N2CCN2CCOCC2)cc1 (configuration not stated) | 3.16 µM [rising, full curve, poor fit] | 
15 | CC(C)COc1ccc(C(=O)Nc2sc3c(c2C(=O)O)CC(C)(C)OC3)cc1 | 4.47 µM [falling, full curve] | 
16 | CCCOc1ccc(C(=O)NCC(c2ccco2)N(C)C)cc1 (configuration not stated) | 9.2 µM [rising, partial curve] | 
17 | CC1CCCC(NC(=O)COC(=O)c2cc(S(=O)(=O)N3CCCCC3)ccc2N2CCOCC2)C1C (configuration not stated) | 29.1 µM [rising, single point] | 
18 | COc1cccc(OCCOc2c(OC)cccc2OC)c1 | 3.55 µM [rising, full curve] | 
19 | CS(=O)(=O)c1ccc(Cl)c(NC(=O)CSc2nncn2-c2ccccc2)c1 | 8.91 µM [rising, partial curve, poor fit] | 
20 | O=C(c1cc(-c2cccc(Br)c2)nc2ccccc12)N1CCCC1 | 7.08 µM [falling, partial curve] | 
21 | COc1ccccc1NC(=O)C1=C(C)Nc2nc(-c3ccc(N(C)C)cc3)nn2C1c1ccncc1 (configuration not stated) | 17.8 µM [falling, single point] | 
22 | O=C(/C=C/c1ccccc1[N+](=O)[O-])NCCc1ccc(F)cc1 | 35.5 µM [falling, single point] | 

Row | Structure (SMILES) | AC50 [1] | AC50 [2]
23 | CCOc1ncccc1C(=O)OC(C)C(=O)Nc1ccc(Cl)cn1 (configuration not stated) | 18.4 µM [falling, single point] | 20.6 µM [rising, partial curve, poor fit]
24 | Cc1ccc(O)c(C2=Nc3ccccc3N=C(c3cccc([N+](=O)[O-])c3)C2)c1 | 14.1 µM [rising, partial curve] | 
25 | CC(=O)c1ccc(-n2nnnc2SCC(=O)NC2CCCCC2)cc1 | 10 µM [falling, partial curve] | 
26 | COc1cc(C)ccc1S(=O)(=O)N1CCCCCC1 | 3.55 µM [rising, partial curve, poor fit] | 
27 | C/C(CC(C)(C)C1CCCCC1)=N\NC(N)=S | 11.6 µM [falling, partial curve, poor fit] | 
28 | COC(=O)c1ccc(N2CN=C(c3ccc(C)cc3)NC2=S)cc1 | 6.51 µM [falling, partial curve] | 
29 | Cn1c(SCc2ccccc2)nnc1-c1c[nH]c2ccccc12 | 0.82 µM [rising, full curve, poor fit] | 
30 | Cc1ccc(C(=O)c2cccc(N)c2)cc1C | 5.62 µM [falling, partial curve, poor fit] | 
31 | CC1(C)Oc2ccc3ccc(=O)oc3c2C[C@H]1O[C@@H]1O[C@H](CO)[C@@H](O)[C@H](O)[C@H]1O | 2.31 µM [rising, full curve, poor fit] | 
32 | C=CCNC(=S)NC(=O)c1oc2ccccc2c1C | 0.0891 µM [rising, full curve, poor fit] | 
33 | O=C(NC(=S)Nc1ccc2c(c1)OCO2)c1ccccc1 | 11.2 µM [falling, partial curve] | 
34 | Cc1cc(C)c2c(CCl)cc(=O)oc2c1 | 0.0891 µM [rising, full curve, poor fit] | 
35 | O=C1OCC(CO)(CO)N=C1NNc1ccccc1[N+](=O)[O-] | 0.224 µM [rising, full curve, poor fit] | 
36 | CCn1c(SC)nnc1-c1c[nH]c2ccccc12 | 29.1 µM [rising, partial curve, poor fit] | 
37 | Cc1ccc(-c2ccccc2NC(=O)CS(=O)CC(=O)Nc2ccc(C)c(Cl)c2)o1 (configuration not stated) | 0.708 µM [rising, full curve, poor fit] | 15.8 µM [falling, partial curve]
38 | CS(=O)(=O)N(CCc1ccccc1)CC(N)=O | 6.51 µM [rising, single point] | 
39 | CN1CCN(c2nc3c(c(=O)[nH]c(=O)n3C)n2Cc2cccc(Br)c2)CC1 | 14.1 µM [rising, single point] | 
40 | Cc1cc(C(=O)Nc2cccc3ncccc23)no1 | 7.94 µM [falling, partial curve] | 
41 | Cc1ccc(-n2cc(CNCCc3ncc(C)[nH]3)c(-c3ccc(F)cc3)n2)cc1 |  | 12.6 µM [falling, partial curve]
42 | CCC(=O)C1=C(N2CCCC2)CC(C)(C)CC1=O | 32.6 µM [rising, single point] | 
43 | O=C(C1=C[C@H](c2ccc3c(c2)OCO3)C[C@H](OCc2ccc(CO)cc2)O1)N1CCN(Cc2ccc3c(c2)OCO3)CC1 | 22.4 µM [falling, partial curve, poor fit] | 
44 | COc1ccc(N(Cc2ccccc2)C(=O)CSc2nnc(Cn3nnc4ccccc43)o2)cc1 | 25.9 µM [falling, partial curve, poor fit] | 

Some of the entries so far, as labelled records:
COc1cccc(OCCOc2c(OC)cccc2OC)c1
  AC50 [1]: 3.55 µM [rising, full curve]
CS(=O)(=O)c1ccc(Cl)c(NC(=O)CSc2nncn2-c2ccccc2)c1
  AC50 [1]: 8.91 µM [rising, partial curve, poor fit]
O=C(c1cc(-c2cccc(Br)c2)nc2ccccc12)N1CCCC1
  AC50 [1]: 7.08 µM [falling, partial curve]

Continued.

Row | Structure (SMILES) | AC50 [1] | AC50 [2]
45 | O=C(C1CCCCC1)N1CCN=C1SCc1cccnc1 | 18.4 µM [falling, single point] | 
46 | COC(=O)c1ccccc1NC(=O)c1cccc(COc2ccccc2Cl)c1 | 10.3 µM [rising, single point] | 
47 | COc1ccc(NC(=O)C2CC(c3cc(OC)c(OC)c(OC)c3)=NO2)cc1OC (configuration not stated) | 23.1 µM [falling, single point] | 
48 | Cc1cc(N2C(=O)c3ccccc3C2=O)n(C)n1 | 0.398 µM [rising, full curve, poor fit] | 
49 | CC(C)c1ccc(C(=O)NC(=S)NCc2cccnc2)cc1 | 0.259 µM [rising, full curve, poor fit] | 
50 | CC(C)NC(=S)NCc1cccnc1 | 6.51 µM [rising, partial curve, poor fit] | 
51 | Cn1nnnc1SCc1ccc(F)cc1 | 0.631 µM [rising, full curve, poor fit] | 
52 | C=C1C(=O)C=C2CN(C(=O)c3ccccc3)[C@@](Cc3ccc(F)cc3)(C(=O)OC)[C@@H]12 | 2.59 µM [falling, partial curve] | 2.91 µM [falling, partial curve, poor fit]
53 | C(=N\Nc1nc2ccccc2s1)/c1ccc2c(c1)OCO2 | 13 µM [falling, partial curve, poor fit] | 
54 | CC(C)(C)NC(=O)CSc1nnc(Cc2ccc3c(c2)OCO3)n1C1CCCCC1 | 5.62 µM [falling, single point] | 
55 | CCCc1ccc(OCc2ccc(C(=O)O)o2)c(OC)c1 | 0.411 µM [falling, full curve] | 
56 | CCn1c(Cc2ccccc2)nnc1SCC(=O)Nc1ccc(S(N)(=O)=O)cc1 | 1.03 µM [rising, partial curve, poor fit] | 
57 | C/C(CC(=O)Nc1ccccn1)=N\NC(=O)c1ccccc1 | 16.4 µM [falling, partial curve] | 
58 | O=C(N/N=C\c1cn[nH]c1-c1ccccc1)c1cccs1 | 2.31 µM [falling, partial curve] | 
59 | CCOC(=O)c1cc(C(=O)Nc2ccccc2F)nn1C | 5.8 µM [falling, partial curve] | 
60 | Cc1cccc(C)c1C(OCCN(C)C)C1CCCCC1 (configuration not stated) | 20.6 µM [falling, single point] | 
61 | COc1ccc(/C=C2\SC(=S)N(CCC(=O)Nc3cccc(C(=O)O)c3)C2=O)cc1OC | 14.1 µM [falling, partial curve, poor fit] | 
62 | Cn1ccsc1=NC(=O)c1ccc(S(C)(=O)=O)c([N+](=O)[O-])c1 | 12.6 µM [falling, partial curve] | 
63 | O=C(COC(=O)CNC(=O)c1ccccc1Cl)Nc1ccccc1Cl | 29.1 µM [rising, single point] | 
64 | Cc1nc(S(=O)(=O)Cc2ccccc2Cl)nc2c1CCC2 | 0.562 µM [rising, full curve, poor fit] | 
